From article PMC7176149 come the findings set out here.

Amino acid sequences for entries named in this document (tags omitted). A change or cut given only in a name is not applied to a line headed by its entry.
UniProt Q14738: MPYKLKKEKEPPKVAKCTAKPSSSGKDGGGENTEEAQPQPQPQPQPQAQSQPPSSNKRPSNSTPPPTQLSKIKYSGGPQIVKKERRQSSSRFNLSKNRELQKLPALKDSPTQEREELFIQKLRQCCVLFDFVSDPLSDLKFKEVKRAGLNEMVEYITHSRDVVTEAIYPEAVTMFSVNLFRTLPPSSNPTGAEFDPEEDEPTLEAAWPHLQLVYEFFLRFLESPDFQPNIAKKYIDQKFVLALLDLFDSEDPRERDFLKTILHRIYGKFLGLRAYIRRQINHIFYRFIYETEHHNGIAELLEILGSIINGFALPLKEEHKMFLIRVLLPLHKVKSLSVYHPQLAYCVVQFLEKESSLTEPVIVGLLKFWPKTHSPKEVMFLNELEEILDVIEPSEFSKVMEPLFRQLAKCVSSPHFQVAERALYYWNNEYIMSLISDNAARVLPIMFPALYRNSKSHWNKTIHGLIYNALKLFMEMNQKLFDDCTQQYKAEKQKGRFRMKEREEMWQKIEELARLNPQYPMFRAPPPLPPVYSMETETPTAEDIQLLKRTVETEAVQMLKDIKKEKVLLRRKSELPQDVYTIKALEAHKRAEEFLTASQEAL
UniProt P19517: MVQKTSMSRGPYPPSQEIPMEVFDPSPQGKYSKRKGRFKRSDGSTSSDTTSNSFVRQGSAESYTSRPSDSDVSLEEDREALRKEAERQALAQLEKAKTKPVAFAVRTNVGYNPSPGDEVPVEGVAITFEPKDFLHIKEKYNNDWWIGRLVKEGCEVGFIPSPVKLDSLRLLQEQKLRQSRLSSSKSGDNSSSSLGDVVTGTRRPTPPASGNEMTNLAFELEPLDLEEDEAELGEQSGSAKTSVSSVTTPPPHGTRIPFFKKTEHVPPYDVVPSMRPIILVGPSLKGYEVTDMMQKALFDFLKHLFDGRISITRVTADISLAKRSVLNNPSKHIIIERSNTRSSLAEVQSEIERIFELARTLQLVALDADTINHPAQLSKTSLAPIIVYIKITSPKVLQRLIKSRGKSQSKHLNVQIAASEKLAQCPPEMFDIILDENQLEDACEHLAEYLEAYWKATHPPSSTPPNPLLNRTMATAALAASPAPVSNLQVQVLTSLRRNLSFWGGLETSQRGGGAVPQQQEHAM

In the experiment the target is PPP2R5D (B56δ), regulatory subunit of protein phosphatase 2A (human (endogenous in HEK293T)) (UniProt Q14738). Nature of the experiment: co-IP; endogenous PPP2R5D precipitated with anti-PPP2R5D antibody on Protein G Dynabeads from lysates of HEK293T cells transfected with a V5-tagged β subunit; 50 mM Tris-HCl pH 8, 120 mM NaCl, 1 mM EDTA, 0.5% Nonidet P40; 2 h at 4°C; blot with anti-V5-HRP and anti-β4.

These are yes or no findings as the source states them, for the method shown. In cells and extracts the contact can be indirect.

For “V5-tagged calcium channel β1a subunit (rabbit) (from UniProt P19517 1-524)”, the binding result is listed as “no binding”.
